For the assay, the target named is GP900 (>900,000 Mr glycoprotein of Cryptosporidium parvum) (Cryptosporidium parvum). Description: biotinylated lectin blot of shed proteins.

These are yes or no findings as the source states them, for the method shown. A result given as binding can be weak or reduced; the word gives no strength. Sequences can lack the tags named with a protein.

B1: Arachis hypogea agglutinin (protein)
chain: AETVSFNFNSFSEGNPAINFQGDVTVLSNGNIQLTNLNKVNSVGRVLYAMPVRIWSSATGNVASFLTSFSFEMKDIKDYDPADGIIFFIAPEDTQIPAGSIGGGTLGVSDTKGAGHFVGVEFDTYSNSEYNDPPTDHVGIDVNSVDSVKTVPWNSVSGAVVKVTVIYDSSTKTLSVAVTNDNGDITTIAQVVDLKAKLPERVKFGFSASGSLGGRQIHLIRSWSFTSTLITTTRRS
modifications: biotinylated
Turning to B1, the binding entry is “no binding”.

B2: Dolichos biflorus agglutinin (protein)
chain: ANIQSFSFKNFNSPSFILQGDATVSSGKLQLTKVKENGIPTPSSLGRAFYSSPIQIYDKSTGAVASWATSFTVKISAPSKASFADGIAFALVPVGSEPRRNGGYLGVFDSDVYNNSAQTVAVEFDTFSNSGWDPSMKHIGIDVNSIKSIATVSWDLANGENAEILITYNAATSLLVASLVHPSRRTSYILSERVDITNELPEYVSVGFSATTGLSEGYIETHDVLSWSFASKLPDDSTAEPLDLASYLVRNVL
modifications: biotinylated
Regarding B2, the binding result is on record as “binds”.

(Values after patent US6657045 (NEW ENGLAND MEDICAL CENTER HOSPITALS, dated 2003).)
